Experimental data taken from patent US20030166513 (published 2003).

Experiment: general procedure: solution-phase peptide synthesis
Settings: conjugation step, based on the drug compound A, trifluoroacetate

For H-Gly-Gly-Phe-Gly-drug compound A, the conjugation yield was 90%.
